# Assay results taken from patent publication US20170290886.
# Chains of the proteins cited; added tags and fusions are not shown. Lines headed by an entry give the natural chain unless they say otherwise; changes in a name come on top.
# UniProt P15337: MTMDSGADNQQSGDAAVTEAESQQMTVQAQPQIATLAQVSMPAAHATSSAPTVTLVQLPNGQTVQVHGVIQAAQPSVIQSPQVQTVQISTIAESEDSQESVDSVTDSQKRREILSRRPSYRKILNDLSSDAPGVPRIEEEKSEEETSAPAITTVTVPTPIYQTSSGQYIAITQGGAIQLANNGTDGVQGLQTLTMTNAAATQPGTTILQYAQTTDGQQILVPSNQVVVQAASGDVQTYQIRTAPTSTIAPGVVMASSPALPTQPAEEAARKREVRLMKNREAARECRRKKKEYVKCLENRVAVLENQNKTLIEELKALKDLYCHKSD
# Construct, isoform or probe ends are uncertain for at least one entry. Results from cells or extracts need not show a direct contact.
# Target: CREB (Rattus norvegicus) (UniProt P15337)
# Test: pull-down
# Conditions: increased by MeCP2 WT and further by MeCP2-SUMO1 fusion, decreased by MeCP2 K412R transfection; poly dI-dC, 4 C; protein in an extract; protein details: endogenous, hippocampal CA1 lysate; label: 5' biotin on sense strand
sequence,measurement,value
AGAGATTGCCTGACGTCAGAGAGCTAGGATTGCCTGACGTCAGAGAGCTAG (double strand) [2x CRE oligo],binding result,binds
